Measured values from PubChem BioAssay AID2685 (National Center for Advancing Translational Sciences (NCATS), 2010).
The other results are listed elsewhere or left out. Shown are side measurements of this screen, not its main read-out; they come without a call. Compounds called inactive in the main read-out are mostly missing here. Potencies come from curve fits of mixed quality, noted in brackets.

Test: qHTS Assay for Lipid Storage Modulators in Drosophila S3 Cells;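 for cell number change: cells counted by Cell Tracker Red CMTPX staining in the red channel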
Conditions: BODIPY lipid droplet fluorescence, 18-24 h; for cell number change: measured here: cell count max response, cells fed with added oleic acid
Procedure, shortened: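 Drosophila S3 cells got compounds at several concentrations plus oleic acid (400 uM solution). Laser-scanning cytometry with 488 nm excitation read lipid droplets at 500-530 nm and cells at 575-640 nm. Percent activity was relative to 20 uM Triacsin C.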

[1] = measured here: lipid fluorescence (Fed channel) AC50, cells fed with added oleic acid
[2] = measured here: cell number channel AC50, cells fed with added oleic acid

Structure (SMILES) | cell number change [%] | AC50 [1] | AC50 [2]
OCCN(CCO)CC(O)COCCC12CC3CC(CC(C3)C1)C2 (centres undefined) | 6.92 |  | 
O=C(COc1cc2oc(=O)c3c(c2cc1Cl)CCC3)NCCN1CCOCC1 | -15.3 |  | 
O=C(Nc1ccc(Cl)cc1)c1ccc2snnc2c1 | 16.4 | 25.9 µM [falling, single point] | 
Cc1ccc(N2C(=O)CC(N(O)C3CC(=O)N(c4ccc(C)cc4)C3=O)C2=O)cc1 (centres undefined) | 50.8 |  | 4.11 µM [rising, partial curve, poor fit]
O=C1/C(=C/c2ccco2)SC(=S)N1CCC(=O)N1CCCCC1CCO (centres undefined) |  | 29.1 µM [falling, single point] | 
COc1ccccc1CN(Cc1nc2ccccc2c(=O)[nH]1)C(=O)Nc1ccc(C)cc1 |  | 0.291 µM [rising, full curve] | 
COc1ccc(-n2ncc3c2CC(C)(C)CC3NC(=O)CCc2c(C)nn(C)c2C)cc1 (centres undefined) |  | 18.4 µM [rising, single point] | 
CCn1cc(/C=C2/SC(=S)NC2=O)c(C)n1 | 5.31 | 23.1 µM [falling, single point] | 
COc1cc(/C=C/C(=O)OCC(=O)NCC2CCCCC2)ccc1O | -13.8 |  | 
COc1ccc(N2CCN(C(=O)CSc3ncnc4c3cnn4-c3ccc(OC)cc3)CC2)cc1 | -20.3 | 0.58 µM [rising, single point] | 0.651 µM [falling, full curve, poor fit]
Cc1cc(Nc2ccccc2N2CCOCC2)n2ncnc2n1 | 39.5 | 5.17 µM [rising, single point] | 16.4 µM [rising, single point]
CCOC(=O)N1CCN(S(=O)(=O)c2ccc(F)cc2)CC1 | 15.1 | 0.116 µM [falling, full curve, poor fit] | 
CC1(N2CCOCC2)C(=O)c2ccccc2C1=O | -19.6 | 1.84 µM [falling, full curve] | 
CCCc1cc2c(cc1NC(=O)c1ccc(C(C)(C)C)cc1)OCO2 | -1.65 | 29.1 µM [falling, single point] | 
Cc1ccccc1/C=N/N1CCN(c2ccccc2)CC1 | 7.2 | 3.26 µM [rising, partial curve] | 
CN(C)/C=N/c1nccc(-c2cccs2)n1 | 3.75 |  | 
Cc1ccc(C)c(N2CC(C(=O)O)CC2=O)c1 (centres undefined) | -2.66 | 0.517 µM [falling, full curve, poor fit] | 
CCOc1ccc(CCNC(=O)COC(=O)c2cccs2)cc1OCC | -44.9 | 2.31 µM [falling, full curve] | 4.11 µM [falling, full curve]
O=[N+]([O-])c1ccc(Cl)c(CN2CCN(c3ncccn3)CC2)c1 | 17.2 | 29.1 µM [rising, single point] | 
Cc1cccc(N2C(=O)CC(SC(N)=Nc3ccccc3)C2=O)c1 (centres undefined) | -13.7 | 0.13 µM [falling, full curve] | 0.146 µM [falling, full curve, poor fit]
CCC(C)[C@H](NC(=O)Nc1ccc(S(N)(=O)=O)cc1)C(=O)OC (some centres undefined) | -12.5 | 1.16 µM [falling, full curve] | 

Whole records, quoted from the list:
O=C(Nc1ccc(Cl)cc1)c1ccc2snnc2c1 is listed with cell number change [%]: 16.4; AC50 [1]: 25.9 µM [falling, single point]
COc1ccccc1CN(Cc1nc2ccccc2c(=O)[nH]1)C(=O)Nc1ccc(C)cc1 is listed with AC50 [1]: 0.291 µM [rising, full curve]
O=[N+]([O-])c1ccc(Cl)c(CN2CCN(c3ncccn3)CC2)c1 is listed with cell number change [%]: 17.2; AC50 [1]: 29.1 µM [rising, single point]
O=C1/C(=C/c2ccco2)SC(=S)N1CCC(=O)N1CCCCC1CCO (centres undefined) is listed with AC50 [1]: 29.1 µM [falling, single point]

Next part.

Structure (SMILES) | cell number change [%] | AC50 [1] | AC50 [2]
O=C(CSc1ncccn1)n1c2c(c3ccccc31)CCCC2 |  | 6.51 µM [rising, single point] | 
CCc1cc(=O)oc2c3c(cc(OCC(=O)Nc4cccnc4)c12)OC(C)(C)CC3 | -24.3 | 16.4 µM [falling, single point] | 
COc1ccc(C(C#N)N2N=C(c3ccccc3)CC2c2ccccc2)cc1OC (centres undefined) | 56.8 | 5.8 µM [rising, full curve, poor fit] | 9.2 µM [rising, partial curve, poor fit]
O=C(Nc1cc(-c2ccccc2)nn1-c1ccccc1F)c1ccc([N+](=O)[O-])cc1 | 53.3 | 23.1 µM [rising, partial curve] | 32.6 µM [rising, single point]
N=c1c(C(=O)NC2CCCC2)cc2c(=O)n3ccccc3nc2n1C1CCCCC1 | -5.13 |  | 
CC(C)CC1CCCCC1OC(=O)C[N+]1(C)CCCCC1 (centres undefined) | 19.4 | 29.1 µM [rising, single point] | 
Cc1ccc(CN(C)CC(=O)Nc2ccc3c(c2)CCC3)cc1 | -22.3 |  | 0.708 µM [falling, full curve, poor fit]
COc1cc(C(=O)O)c([N+](=O)[O-])c(OC)c1OC | 17.2 | 1.46 µM [falling, partial curve, poor fit] | 
Cc1nc(SCc2ccc(O)c([N+](=O)[O-])c2)c([N+](=O)[O-])[nH]1 | 3.7 | 0.0326 µM [falling, full curve, poor fit] | 
Cc1ccc(S(=O)(=O)N2CCN(C(=O)c3n[nH]c(=O)c4ccccc34)CC2)c(C)c1 | -28.1 | 0.103 µM [falling, full curve, poor fit] | 
Cc1c(Cl)cccc1NC(=O)Nc1c(C)n(C)n(-c2ccccc2)c1=O | 11 | 4.11 µM [falling, full curve, poor fit] | 
Cc1nn(CC(=O)Nc2ccc(Cl)cn2)c(C)c1Br | -16 |  | 0.0058 µM [rising, full curve, poor fit]
COc1cc(OC)c([N+](=O)[O-])cc1/C=N/NC(=O)c1ccncc1 | 12.8 | 0.58 µM [rising, partial curve, poor fit] | 
NC(=O)CCN1CCN(S(=O)(=O)/C=C/c2ccccc2)CC1 | 0.417 |  | 
COC(=O)C1C(c2ccc(OC)cc2)C(C(=O)OC)S(=O)(=O)C(CCN2CCCCC2)S1(=O)=O (centres undefined) | 4.82 |  | 
CCOc1ccc(/C=N/Nc2cc(=O)n(C)c(=O)n2C)cc1 | -14.3 | 0.58 µM [falling, partial curve, poor fit] | 
COc1cc(C2C(C#N)=C(N)Oc3cc(C)oc(=O)c32)cc2c1OCO2 (centres undefined) | 36.9 |  | 32.6 µM [rising, partial curve, poor fit]
CN1CCN(C(=O)C2CCCN(c3ncnc4c3nc3n4CCCCC3)C2)CC1 (centres undefined) | -10.8 | 0.58 µM [falling, single point] | 
CC1CCCC/C1=N\NC(=S)Nc1ccccc1 (centres undefined) |  | 0.00461 µM [falling, full curve, poor fit] | 
O=C(CCCn1c(=S)[nH]c2cc3c(cc2c1=O)OCO3)N1CCN(c2ccccn2)CC1 | -28.6 | 20.6 µM [falling, single point] | 
Cc1cccc(NC(=S)NC(=O)c2ccc(-c3ccccc3)cc2)n1 | 28.6 |  | 

Structure (SMILES) | cell number change [%] | AC50 [1] | AC50 [2]
COc1ccc(C2CC(c3cccs3)=NN2C(=O)CSc2nc3c(cnn3-c3ccccc3)c(=O)[nH]2)cc1 (centres undefined) | -15.1 | 7.31 µM [rising, partial curve, poor fit] | 
Cn1c(SCC(=O)Nc2ccc3c(c2)OCCO3)nnc1-c1ccco1 | -15.6 |  | 
CC1Cc2nc(SCC(N)=O)n(Cc3ccccc3)c(=O)c2S1 (centres undefined) |  | 6.51 µM [falling, single point] | 
C=CCc1cccc(Cl)c1OCCON1C(=O)CCC1=O | 25.2 | 7.31 µM [rising, partial curve] | 0.517 µM [rising, partial curve]
N#CC1=C(N)Oc2c(sc3ccccc23)C1c1ccco1 (centres undefined) | -2.75 | 1.84 µM [rising, full curve, poor fit] | 
C=CCn1c(NC(C)c2cc(Cl)ccc2O)nc2ccccc21 (centres undefined) |  | 29.1 µM [falling, single point] | 
FC(F)(F)c1ccc2c(c1)N1CCCC1CN2 (centres undefined) | 10.4 | 20.6 µM [falling, partial curve, poor fit] | 
O=C(CN1CCOCC1)Nc1ccc([N+](=O)[O-])cc1Br | -43 | 0.1 µM [falling, full curve, poor fit] | 
C[C@H]1CN=C(N(C)C)N1CCc1ccccc1 | 9.17 |  | 
Cn1c(SCC(=O)NCc2ccc3c(c2)OCO3)nnc1-c1c[nH]c2ccccc12 | -6.27 | 0.231 µM [rising, full curve] | 
CC(C)(Oc1ccc(Cl)cc1)C(=O)N/N=C/c1cn[nH]c1-c1ccccc1 | -84.9 | 29.1 µM [falling, single point] | 25.9 µM [falling, single point]
NC(=O)c1ccc(NC(=O)CSC2=Nc3ccccc3C3CC=NN23)cc1 (centres undefined) | 88.8 | 1.64 µM [rising, partial curve] | 7.31 µM [rising, partial curve]
CCOc1ccccc1NC(=O)c1c(NC(=O)CCC(=O)O)sc2c1CCCCC2 | -29.9 |  | 
CCC(Sc1nc(C)cc(C)n1)C(=O)O (centres undefined) | -8.71 | 4.61 µM [falling, single point] | 
O=C(Cc1ccc([N+](=O)[O-])cc1)N/N=C/c1ccco1 | -22.7 |  | 
CCOC(=O)c1c(C)[nH]c(C)c1C(=O)Cn1nnc(-c2ccccc2C)n1 | 7.89 |  | 
CC(C)[C@H](Nc1ccc(S(=O)(=O)N2CCOCC2)cc1[N+](=O)[O-])C(=O)OCC(=O)N(C(C)C)C(C)C | 66.7 |  | 29.1 µM [rising, single point]
CCCCC(O)(CCCC)C(=O)NN(C(=O)c1cccnc1Cl)c1ccccc1 | -19.4 | 6.51 µM [rising, single point] | 
CN(CC(=O)N1CCN(c2ccccn2)CC1)S(=O)(=O)c1ccc(Cl)cc1 | 22.3 |  | 
Cc1cc(=O)oc2ccc(OC(=O)CC(C)C)cc12 | 2.53 | 0.206 µM [falling, full curve, poor fit] | 
CC1(C)NC(=O)N(CCOCCOc2ccccc2)C1=O | -18.9 |  | 1.16 µM [falling, full curve, poor fit]
